In publication PMC6449396:
Results are given in words; binding and its absence hold for the method and conditions named. Binding seen in cells or lysates may run through a third protein. Some results given as binding are weak or reduced against the parent protein; the word gives no strength. For some of these results: Where a sequence is shown, tags or fusion partners need not be part of it.

Amino acid sequences for entries named in this document (tags omitted). A change or cut given only in a name is not applied to a line headed by its entry. Chains listed by the source or under a name are the forms on record and can include a tag or linker. Residues count along the entry.
HA-tagged PML aa 1–229 (P29590, residues 1-229): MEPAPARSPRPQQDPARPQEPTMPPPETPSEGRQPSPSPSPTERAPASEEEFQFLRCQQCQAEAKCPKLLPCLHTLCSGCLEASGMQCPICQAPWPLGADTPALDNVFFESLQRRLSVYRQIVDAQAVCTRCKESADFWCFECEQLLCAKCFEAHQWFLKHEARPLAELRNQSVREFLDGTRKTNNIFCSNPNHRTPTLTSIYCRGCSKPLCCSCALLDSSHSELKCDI
HA-PML (PML-IV), full length (P29590, form named): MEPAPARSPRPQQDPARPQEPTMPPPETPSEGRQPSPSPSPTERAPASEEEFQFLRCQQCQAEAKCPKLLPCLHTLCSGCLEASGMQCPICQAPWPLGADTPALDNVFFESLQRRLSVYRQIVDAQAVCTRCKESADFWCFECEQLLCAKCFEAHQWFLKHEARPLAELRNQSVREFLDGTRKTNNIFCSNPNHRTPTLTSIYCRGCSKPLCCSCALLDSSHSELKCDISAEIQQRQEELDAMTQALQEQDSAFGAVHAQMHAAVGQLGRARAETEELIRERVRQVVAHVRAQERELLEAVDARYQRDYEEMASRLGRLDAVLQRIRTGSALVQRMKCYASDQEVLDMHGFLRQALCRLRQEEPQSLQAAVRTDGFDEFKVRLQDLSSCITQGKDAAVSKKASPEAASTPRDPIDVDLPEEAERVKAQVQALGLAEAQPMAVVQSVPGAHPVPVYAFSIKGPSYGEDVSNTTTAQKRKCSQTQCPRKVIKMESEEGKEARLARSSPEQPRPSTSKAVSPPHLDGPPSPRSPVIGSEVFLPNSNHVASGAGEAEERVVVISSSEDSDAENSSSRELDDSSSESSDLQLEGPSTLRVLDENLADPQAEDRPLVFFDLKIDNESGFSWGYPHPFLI

Key:
[1] = biological target: HA-PML (PML-IV), full length (UniProt P29590); experiment: co-IP; 293T cells co-transfected with tagged PML, tagged MDM2 and increasing amounts of FL Mad1 or Mad1ΔCTD; extracts 48 h after transfection immunoprecipitated with beads coupled to anti-FLAG antibodies
[2] = biological target: HA-PML (PML-IV), full length (UniProt P29590); experiment: co-IP; anti-HA magnetic beads, 5 h at 4 °C; lysates of transiently transfected HEK-293T cells in RIPA buffer; HA-PML constructs as bait, FLAG-tagged Mad1 constructs detected
HA-tagged PML aa 1–229 = HA-tagged PML aa 1–229 (UniProt P29590); experiment: as above

Row | binding [1] | binding [2] | binding (HA-tagged PML aa 1–229) | Binder
1 | binds | – | – | full length (FL) Mad1 of Fig. 6 (protein, UniProt Q9Y6D9 1-718) MEDLGENTMVLSTLRSLNNFISQRVEGGSGLDISTSAPGSLQMQYQQSMQLEERAEQIRSKSHLIQVEREKMQMELSHKRARVELERAASTSARNYEREVDRNQELLTRIRQLQEREAGAEEKMQEQLERNRQCQQNLDAASKRLREKEDSLAQAGETINALKGRISELQWSVMDQEMRVKRLESEKQELQEQLDLQHKKCQEANQKIQELQASQEARADHEQQIKDLEQKLSLQEQDAAIVKNMKSELVRLPRLERELKQLREESAHLREMRETNGLLQEELEGLQRKLGRQEKMQETLVGLELENERLLAKLQSWERLDQTMGLSIRTPEDLSRFVVELQQRELALKDKNSAVTSSARGLEKARQQLQEELRQVSGQLLEERKKRETHEALARRLQKRVLLLTKERDGMRAILGSYDSELTPAEYSPQLTRRMREAEDMVQKVHSHSAEMEAQLSQALEELGGQKQRADMLEMELKMLKSQSSSAEQSFLFSREEADTLRLKVEELEGERSRLEEEKRMLEAQLERRALQGDYDQSRTKVLHMSLNPTSVARQRLREDHSQLQAECERLRGLLRAMERGGTVPADLEAAAASLPSSKEVAELKKQVESAELKNQRLKEVFQTKIQEFRKACYTLTGYQIDITTENQYRLTSLYAEHPGDCLIFKATSPSGSKMQLLETEFSHTVGELIEVHLRRQDSIPAFLSSLTLELFSRQTVA
2 | – | binds | – | Mad1 aa 180–718, FLAG-tagged fragment (domain or fragment, UniProt Q9Y6D9 180-718) VKRLESEKQELQEQLDLQHKKCQEANQKIQELQASQEARADHEQQIKDLEQKLSLQEQDAAIVKNMKSELVRLPRLERELKQLREESAHLREMRETNGLLQEELEGLQRKLGRQEKMQETLVGLELENERLLAKLQSWERLDQTMGLSIRTPEDLSRFVVELQQRELALKDKNSAVTSSARGLEKARQQLQEELRQVSGQLLEERKKRETHEALARRLQKRVLLLTKERDGMRAILGSYDSELTPAEYSPQLTRRMREAEDMVQKVHSHSAEMEAQLSQALEELGGQKQRADMLEMELKMLKSQSSSAEQSFLFSREEADTLRLKVEELEGERSRLEEEKRMLEAQLERRALQGDYDQSRTKVLHMSLNPTSVARQRLREDHSQLQAECERLRGLLRAMERGGTVPADLEAAAASLPSSKEVAELKKQVESAELKNQRLKEVFQTKIQEFRKACYTLTGYQIDITTENQYRLTSLYAEHPGDCLIFKATSPSGSKMQLLETEFSHTVGELIEVHLRRQDSIPAFLSSLTLELFSRQTVA
3 | – | binds | binds | Mad1-3xFLAG, full length wild type (protein, UniProt Q9Y6D9 1-718) MEDLGENTMVLSTLRSLNNFISQRVEGGSGLDISTSAPGSLQMQYQQSMQLEERAEQIRSKSHLIQVEREKMQMELSHKRARVELERAASTSARNYEREVDRNQELLTRIRQLQEREAGAEEKMQEQLERNRQCQQNLDAASKRLREKEDSLAQAGETINALKGRISELQWSVMDQEMRVKRLESEKQELQEQLDLQHKKCQEANQKIQELQASQEARADHEQQIKDLEQKLSLQEQDAAIVKNMKSELVRLPRLERELKQLREESAHLREMRETNGLLQEELEGLQRKLGRQEKMQETLVGLELENERLLAKLQSWERLDQTMGLSIRTPEDLSRFVVELQQRELALKDKNSAVTSSARGLEKARQQLQEELRQVSGQLLEERKKRETHEALARRLQKRVLLLTKERDGMRAILGSYDSELTPAEYSPQLTRRMREAEDMVQKVHSHSAEMEAQLSQALEELGGQKQRADMLEMELKMLKSQSSSAEQSFLFSREEADTLRLKVEELEGERSRLEEEKRMLEAQLERRALQGDYDQSRTKVLHMSLNPTSVARQRLREDHSQLQAECERLRGLLRAMERGGTVPADLEAAAASLPSSKEVAELKKQVESAELKNQRLKEVFQTKIQEFRKACYTLTGYQIDITTENQYRLTSLYAEHPGDCLIFKATSPSGSKMQLLETEFSHTVGELIEVHLRRQDSIPAFLSSLTLELFSRQTVA
